Data published in publication PMC8384837.
Changes are numbered by the printed parent chain. Some of the results follow. For some assays here: At the low end of the ranking, values are background and their order means little.

Assays:
Conditions in all cases: yeast three-hybrid, YBZ-1, SC-Leu-His + 0.5 mM 3-AT, 4 days
[1] = target: T1, PUM1 PUF domain R6-LFA N1043L + Y1044F + Q1047A (Homo sapiens) (UniProt Q14671)
T1 sequence: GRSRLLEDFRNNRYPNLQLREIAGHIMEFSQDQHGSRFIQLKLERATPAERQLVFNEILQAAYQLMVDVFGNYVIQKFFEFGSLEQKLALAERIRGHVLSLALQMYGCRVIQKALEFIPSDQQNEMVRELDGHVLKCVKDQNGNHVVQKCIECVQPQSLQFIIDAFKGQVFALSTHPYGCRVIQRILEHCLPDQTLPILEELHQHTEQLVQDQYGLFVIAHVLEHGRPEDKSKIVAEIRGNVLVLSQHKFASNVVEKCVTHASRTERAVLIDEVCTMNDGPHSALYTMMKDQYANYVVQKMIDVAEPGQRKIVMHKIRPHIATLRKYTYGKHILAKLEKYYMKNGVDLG

[2] = target: T2, PUM1 PUF domain R6-LFT N1043L + Y1044F + Q1047T (Homo sapiens) (UniProt Q14671)
T2 sequence: T1 sequence with A220T

[3] = target: T3, PUM1 PUF domain R6-LFV N1043L + Y1044F + Q1047V (Homo sapiens) (UniProt Q14671)
T3 sequence: T1 sequence with A220V

[4] = target: T4, PUM1 PUF domain R6-LWE N1043L + Y1044W + Q1047E (Homo sapiens) (UniProt Q14671)
T4 sequence: T1 sequence with F217W, A220E

[5] = target: T5, PUM1 PUF domain R6-KFG N1043K + Y1044F + Q1047G (UniProt Q14671)
T5 sequence: T1 sequence with L216K, A220G

[6] = target: T6, PUM1 PUF domain R6-KWA N1043K + Y1044W + Q1047A (UniProt Q14671)
T6 sequence: T1 sequence with L216K, F217W

[7] = target: T7, PUM1 PUF domain R6-KWG N1043K + Y1044W + Q1047G (Homo sapiens) (UniProt Q14671)
T7 sequence: T1 sequence with L216K, F217W, A220G

[8] = target: T8, PUM1 PUF domain R6-KWQ N1043K + Y1044W (UniProt Q14671)
T8 sequence: T1 sequence with L216K, F217W, A220Q

[9] = target: T9, PUM1 PUF domain R6-KWR N1043K + Y1044W + Q1047R (UniProt Q14671)
T9 sequence: T1 sequence with L216K, F217W, A220R

[10] = target: T10, PUM1 PUF domain R6-LFG N1043L + Y1044F + Q1047G (UniProt Q14671)
T10 sequence: T1 sequence with A220G

[11] = target: T11, PUM1 PUF domain R6-LWC N1043L + Y1044W + Q1047C (UniProt Q14671)
T11 sequence: T1 sequence with F217W, A220C

[12] = target: T12, PUM1 PUF domain R6-LWG N1043L + Y1044W + Q1047G (Homo sapiens) (UniProt Q14671)
T12 sequence: T1 sequence with F217W, A220G

[13] = target: T13, PUM1 PUF domain R6-LWK N1043L + Y1044W + Q1047K (UniProt Q14671)
T13 sequence: T1 sequence with F217W, A220K

[14] = target: T14, PUM1 PUF domain R6-LWR N1043L + Y1044W + Q1047R (UniProt Q14671)
T14 sequence: T1 sequence with F217W, A220R

[15] = target: T15, PUM1 PUF domain R6-MHR N1043M + Y1044H + Q1047R (UniProt Q14671)
T15 sequence: T1 sequence with L216M, F217H, A220R

[16] = target: T16, PUM1 PUF domain R6-MWG N1043M + Y1044W + Q1047G (UniProt Q14671)
T16 sequence: T1 sequence with L216M, F217W, A220G

[17] = target: T17, PUM1 PUF domain R6-IYV N1043I + Q1047V (Homo sapiens) (UniProt Q14671)
T17 sequence: T1 sequence with L216I, F217Y, A220V

[18] = target: T18, PUM1 PUF domain R6-KFS N1043K + Y1044F + Q1047S (Homo sapiens) (UniProt Q14671)
T18 sequence: T1 sequence with L216K, A220S

[19] = target: T19, PUM1 PUF domain R6-LYG N1043L + Q1047G (Homo sapiens) (UniProt Q14671)
T19 sequence: T1 sequence with F217Y, A220G

[20] = target: T20, PUM1 PUF domain R6-MFR N1043M + Y1044F + Q1047R (Homo sapiens) (UniProt Q14671)
T20 sequence: T1 sequence with L216M, A220R

GGCUAGAACUAGUGGAUCCCCCGGCGCCCGGCGGCUCGAGCCCGGGUAAGUGUAAAUAGUCUGCAUGCCGCCGGGCGCCAUGCCUGCAGGUCGACUCUAGAAAACAUG
binding signal (log2 enrichment (interaction score)) [1]: -2.29
binding signal (log2 enrichment (interaction score)) [2]: 0.13
binding signal (log2 enrichment (interaction score)) [3]: -1.01
binding signal (log2 enrichment (interaction score)) [4]: 0.83

GGCUAGAACUAGUGGAUCCCCCGGCGCCCGGCGGCUCGAGCCCGGGUAAGUGGAAAUAGUCUGCAUGCCGCCGGGCGCCAUGCCUGCAGGUCGACUCUAGAAAACAUG
binding signal (log2 enrichment (interaction score)) [5]: < -8.3
binding signal (log2 enrichment (interaction score)) [6]: -3.9
binding signal (log2 enrichment (interaction score)) [7]: -2.97
binding signal (log2 enrichment (interaction score)) [8]: -3.11
binding signal (log2 enrichment (interaction score)) [9]: < -8.86
binding signal (log2 enrichment (interaction score)) [10]: < -8.54
binding signal (log2 enrichment (interaction score)) [11]: < -6.88
binding signal (log2 enrichment (interaction score)) [12]: -0.3
binding signal (log2 enrichment (interaction score)) [13]: < -7.21
binding signal (log2 enrichment (interaction score)) [14]: -8.22
binding signal (log2 enrichment (interaction score)) [15]: < -7.33
binding signal (log2 enrichment (interaction score)) [16]: < -8.28

GGCUAGAACUAGUGGAUCCCCCGGCGCCCGGCGGCUCGAGCCCGGGUAAGUGAAAAUAGUCUGCAUGCCGCCGGGCGCCAUGCCUGCAGGUCGACUCUAGAAAACAUG
binding signal (log2 enrichment (interaction score)) [17]: 0.29
binding signal (log2 enrichment (interaction score)) [18]: -2.05
binding signal (log2 enrichment (interaction score)) [19]: -0.33
binding signal (log2 enrichment (interaction score)) [20]: -3.41
